Measurements taken from article doi:10.1101/142943.
Results are given in words; binding and its absence hold for the method and conditions named. In cells and extracts the contact can be indirect. Binding can be weak; no strength is given.

Sequences of proteins named here, by UniProt entry; tags and fusion partners are left off. A change or cut given only in a name is not applied to a line headed by its entry.
UniProt O75030: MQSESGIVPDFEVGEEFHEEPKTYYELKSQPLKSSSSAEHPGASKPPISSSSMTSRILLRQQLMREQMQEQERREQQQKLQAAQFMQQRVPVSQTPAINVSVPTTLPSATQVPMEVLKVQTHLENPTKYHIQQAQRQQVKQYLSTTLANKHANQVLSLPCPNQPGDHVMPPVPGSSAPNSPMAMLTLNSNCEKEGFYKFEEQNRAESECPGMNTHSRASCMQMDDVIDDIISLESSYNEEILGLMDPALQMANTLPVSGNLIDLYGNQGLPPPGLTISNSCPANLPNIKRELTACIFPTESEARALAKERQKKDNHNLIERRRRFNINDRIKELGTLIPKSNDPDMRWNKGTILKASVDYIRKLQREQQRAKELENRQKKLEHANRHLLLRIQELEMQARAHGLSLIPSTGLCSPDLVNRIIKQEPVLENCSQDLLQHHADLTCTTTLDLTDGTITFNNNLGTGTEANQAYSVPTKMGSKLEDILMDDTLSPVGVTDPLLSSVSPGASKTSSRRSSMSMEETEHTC
UniProt Q01860: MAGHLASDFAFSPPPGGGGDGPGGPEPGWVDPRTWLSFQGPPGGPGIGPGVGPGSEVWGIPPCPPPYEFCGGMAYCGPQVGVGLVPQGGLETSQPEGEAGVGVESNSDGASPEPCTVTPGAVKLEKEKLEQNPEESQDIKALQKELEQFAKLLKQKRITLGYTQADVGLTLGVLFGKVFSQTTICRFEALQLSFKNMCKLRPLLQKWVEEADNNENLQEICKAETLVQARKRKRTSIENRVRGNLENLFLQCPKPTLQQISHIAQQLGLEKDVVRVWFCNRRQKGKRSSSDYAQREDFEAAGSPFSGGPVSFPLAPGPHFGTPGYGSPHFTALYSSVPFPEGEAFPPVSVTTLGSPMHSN

Target: MITF (endogenous in WM3682 melanoma cells) (human (endogenous in WM3682)) (UniProt O75030)
Assay: co-IP

In the case of “OCT4-Flag (expressed in WM3682 cells) (from UniProt Q01860 1-360)”, the binding is reported as “binds”.
